This note sets out measurements from publication PMC4942575.

Sequences of proteins named here, by UniProt entry; tags and fusion partners are left off. A change or cut given only in a name is not applied to a line headed by its entry.
UniProt A0MES8: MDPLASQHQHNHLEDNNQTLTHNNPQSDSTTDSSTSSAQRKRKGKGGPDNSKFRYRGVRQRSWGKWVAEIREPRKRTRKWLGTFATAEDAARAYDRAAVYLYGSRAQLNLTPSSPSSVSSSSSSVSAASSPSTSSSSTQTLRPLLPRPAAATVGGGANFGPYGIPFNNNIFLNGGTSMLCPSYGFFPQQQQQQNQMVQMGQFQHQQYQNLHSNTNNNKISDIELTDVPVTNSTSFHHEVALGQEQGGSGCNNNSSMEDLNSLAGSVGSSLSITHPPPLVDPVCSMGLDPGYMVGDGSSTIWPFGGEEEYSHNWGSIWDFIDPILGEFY

Construct, isoform or probe ends are uncertain for at least one entry. For some assays here: Negatives hold for the conditions tested. For some assays here: At least one verdict was read from the data and is not stated in words by the source.

For series [1], the target named is MBP-ABI4 WT phosphorylated by MPK3/MPK6 (Arabidopsis thaliana) (UniProt A0MES8). Kind of series: EMSA. Particulars: pre-incubated with activated MPK3+MPK6 and ATP, binding increased vs unphosphorylated; 10 ul: 2 ug protein, 200 fmol biotin probe, 1 ul poly(dI/dC), 1x LightShift binding buffer, 5% glycerol; room temperature 20 min; 6% native PAGE; pH and salt not given; recombinant protein; protein details: MBP (pETMALc-H); label: 3' biotin.

In a further series the test system is MBP. Kind of series: EMSA. The conditions noted are these: negative control; 10 ul: 2 ug protein, 200 fmol biotin probe, 1 ul poly(dI/dC), 1x LightShift binding buffer, 5% glycerol; room temperature 20 min; 6% native PAGE; pH and salt not given; recombinant protein; label: 3' biotin. (In EMSA bound probe runs differently from free probe, usually more slowly.)

Take “GACTAGAGACTGCCACATAAGAATAGTAAAGTTA (double strand) [LHCB promoter probe]”: the binding result in series [1] is reported as “binds”; with MBP, “no binding”.
